Library screening results

Data taken from ChEMBL document CHEMBL3988442, “University of Dundee, Small-Polar-MMV Screening Library” (2021).

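Assay on Mycobacterium tuberculosis, filed only as a heat shock assay from Cornell; the read-out is not stated. The concentration is filed as 10 mM, unlikely as a test dose, so the dose is not known. The record gives no direction; compounds that gave an IC50 in retests scored well above the rest, so higher reads as stronger inhibition. Size under these conditions: about 69,000 compounds, about 930 of them at 50% or above in at least one test.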

Values are the deposited “Percent Effect”, in %.
The controls that fix the scale are not given in the record; negative values are as filed.
This is an unselected part of the compounds tested.

Compound	effect
CC(C)C(NC(N)=O)C(=O)NCc1ccc(N2CCCC2)nc1 (stereo not drawn)	-4.078
COc1nn(C)c2c1CCCN(C(=O)c1cnccn1)C2	11.01
CN(Cc1ccccc1)S(=O)(=O)N1C[C@@H](C(=O)O)[C@H](C2CC2)C1	2.978
Cc1nn2cnnc2c(C)c1CCC(=O)Nc1nc2c(s1)CCC2	3.963
CC(O)(CCc1ccccc1)CNC(=O)c1cccs1 (stereo not drawn)	24.42
O=C(CNC(=O)c1cc(Cl)ccn1)Nc1nccs1	-13.51
CNc1snc(C)c1C(=O)N1CCCC(n2ccnc2C(C)C)C1 (stereo not drawn)	0.5342
Cc1cccc(CN2CCN(C(=O)[C@@H]3CSCN3C)CC2)c1	6.024
Cc1nc(NCC2CC2)nc2c1COCC21CCN(C)C1 (stereo not drawn)	-7.876
CO[C@@H]1CCN(C(=O)Cc2ccc(F)cc2)[C@@H]1Cc1cccnc1.O=C(O)C(F)(F)F	-5.323
Cc1nn(C)cc1C(=O)N1CCCC(n2nnc3cc(F)ccc32)C1 (stereo not drawn)	-18.01
c1ccc(CCNC2CCc3ncnn3C2)nc1 (stereo not drawn)	16.71
CCn1cnnc1CNC(=O)N(C)C(C)c1cccs1 (stereo not drawn)	2.818
CO[C@H]1C[C@@H](O)C12CCN(C(=O)CCCOc1ccccc1)CC2	22.74
CCN(C)C(=O)c1ccc(N(C)Cc2cc(-c3ccncc3)no2)nc1	-26.09
O=C(NCCCF)Nc1ccc2nc(N3CCOCC3)oc2c1	-26.17
Cc1occc1C(=O)NCC(=O)NCCOc1cccc(Cl)c1	34.75
Cc1ccc(OCC(=O)NCC(C)C)nc1	-5.321
Cc1ccsc1-c1nnc(C2CCN(Cc3ccc(F)cc3)CC2)o1	8.909
COc1cccc(-c2n[nH]c3c2CN(C(=O)c2cccc(=O)[nH]2)CC3)c1	15.27
CN(C)c1ncc(CNC2CC(=O)N(CCc3cccc(Cl)c3)C2)s1 (stereo not drawn)	10.25
O=C(NCc1cccnc1)NCC(O)c1cccc(C(F)(F)F)c1 (stereo not drawn)	21.34
[H][C@@]12CCN(Cc3ccccc3)C[C@]1([H])CCN(c1ccccc1)C(=O)C2	-30.24
CSC1=Nc2c(cnn2-c2ccccc2)C2=NCCCN12	-15.6
Cc1nn(C)c(C)c1C1CCCN1CC(=O)Nc1nccs1 (stereo not drawn)	14.06
COCc1csc(NC(=O)NCc2ccsc2)n1	-3.275
Cc1cc(C(=O)NCCn2nc3ccccn3c2=O)[nH]n1	42.92
Cn1nccc1C(=O)N1CCOC(Cc2ccc(Cl)cc2)C1 (stereo not drawn)	-4.182
O=C(C1CCCCO1)N1CCc2ncnc(NCCO)c2CC1 (stereo not drawn)	2.353
O=C(c1cscn1)N1CCC2(CC1)CN(c1ccccn1)CCO2	-37.39
COC(=O)c1ccc(CN2CCC(c3noc(C)n3)CC2)s1	4.273
N#Cc1cccc(Cl)c1NCCc1n[nH]c(=O)[nH]1	16.56
Cc1cc(N[C@H]2CCCC[C@@H]2O)n2nccc2n1	-6.199
CCCC(C)(C)NC(=O)c1cnc(C)s1	9.455
Cc1ncc(C(=O)OCC2CCN(c3ccccc3)C2)s1 (stereo not drawn)	14.07
O=C(CCc1ccsc1)N1CCCC(n2cncn2)C1 (stereo not drawn)	-3.133
Cc1ncc2c(n1)CN(Cc1nc(C)c(C)o1)CC2	8.416
CCN(CC)c1ccc(C(=O)NCc2cccnc2-n2cncn2)cn1	-3.02
O=S1(=O)CCN2C(=N1)Oc1ccc(S(=O)(=O)N3CCCC3)cc12	-8.49
OC1(CN2CCCC2)COCCN(c2noc(-c3ccccc3)n2)C1 (stereo not drawn)	15.57
O=C(Nc1ccccc1)C1CCCN(c2cc(-n3cncn3)ncn2)C1 (stereo not drawn)	9.761
CC(=O)N(Cc1ncc(C)o1)C1CCN(Cc2csc(C)n2)C1 (stereo not drawn)	-3.458
COCC(O)CN(C)c1cc(C(F)(F)F)nc(-c2cccnc2)n1 (stereo not drawn)	-31.85
Cc1nn(-c2ncccn2)c2c1C(c1cnn(C)c1)SCC(=O)N2 (stereo not drawn)	3.579
CN(C)C(=O)N1CCC2(CC(=O)N(c3cccc(C#N)c3)C2)C1 (stereo not drawn)	-22.13
CCN1CCCC12CCN(C(=O)c1ccsc1)CC2.O=C(O)C(F)(F)F	-1.635
Cc1ccc(O)c(CN2CCCCC2CCN2CCOCC2)c1 (stereo not drawn)	-22.41
N#Cc1ccccc1N1CCCN(C(=O)CCc2ccco2)CC1	17.41
Cc1cnn(CC2CCCN2C(=O)CCc2nc3ccccc3[nH]2)c1 (stereo not drawn)	-0.3344
CCCc1cc(C(=O)NCCCn2nnc3ccccc32)no1	-8.745
Cn1nc(C2CN(C(=O)c3ccncc3)C2)c2nccnc21	-30.31
O=C(O)CSc1nnc(-c2cn[nH]c2)n1-c1ccccc1C(F)(F)F	2.492
O=C(O)C(F)(F)F.O=C(O)C(F)(F)F.O=c1ccc2c(n1Cc1cccnc1)CCN(Cc1ccoc1)CC2	-14.95
Cc1nnc(CN2CCC3(CCC(=O)N(C4CC4)C3)CC2)o1	9.027
CCc1c(C(=O)NCC(=O)OCC2CC2)cnn1-c1ccc(C)cc1	8.578
CCc1cc(-c2cc[nH]n2)nc(N2CCCC2)n1	5.688
Cn1nccc1CCC(=O)N1CCC(c2cnccn2)CC1	-2.615
CN(C)S(=O)(=O)N1CCCC1CC(=O)c1cccs1 (stereo not drawn)	-1.128
N#CC1(NC(=O)c2ccc(-c3nc(C4CC4)n[nH]3)cc2)CCC1	16.68
O=C(c1ccon1)N1CCc2ncnc(NCc3ccccn3)c2CC1	76.86

Some entries from above, unchanged:

- O=C(c1cscn1)N1CCC2(CC1)CN(c1ccccn1)CCO2 | -37.39%
- O=C(CCc1ccsc1)N1CCCC(n2cncn2)C1 (stereo not drawn) | -3.133%
- COC(=O)c1ccc(CN2CCC(c3noc(C)n3)CC2)s1 | 4.273%
- CCn1cnnc1CNC(=O)N(C)C(C)c1cccs1 (stereo not drawn) | 2.818%
- N#Cc1ccccc1N1CCCN(C(=O)CCc2ccco2)CC1 | 17.41%